The list shows only some results of the screen, not a fair sample: it is rich in T/C values a quarter to a half above the control, in often repeated tests (any T/C) and in doses without a T/C. Further doses and runs are listed elsewhere. T/C is the treated group as % of the vehicle group. Some entries give survivors of the animals treated and no T/C: the source files T/C as zero there, which appears to mark a toxic dose or a test without result, not a measured value. Some survivor counts are full or nearly so, which does not show that the dose was tolerated: survival well below the control is almost never listed, so the zero probably covers shortened survival too. Survivors were counted at the toxicity check, usually on the fifth day, unless a day is given; later deaths do not show. Schedules are NCI's codes, taken here to give the interval after Q, in days (D) or hours (H), and the number of doses after X. For survival time, the PubChem record calls one and a half times the control and up active, and a quarter to a half above the control has no call in these data; cut-offs in other NCI protocols can differ. Some doses were run more than once; the values are given in rising order.
Test system: P388 leukemia ip, CD2F1 mice, survival T/C
Assay: NCI In Vivo Anticancer Drug Screen. Data for tumor model P388 Leukemia (intraperitoneal) in CD2F1 (CDF1) mice
Settings: T/C endpoint: median survival time, higher T/C = longer survival
[1] = dose: 400.0 mg/kg/injection, schedule: Q04DX003 (ip), vehicle: saline with Tween-80
[2] = dose: 200.0 mg/kg/injection, schedule: Q01DX009 (ip), vehicle: saline
[3] = dose: 200.0 mg/kg/injection, schedule: Q01DX005 (ip), vehicle: Klucel (hydroxypropylcellulose) (HPC)
[4] = dose: 100.0 mg/kg/injection, schedule: Q01DX005 (ip), vehicle: Klucel (hydroxypropylcellulose) (HPC)
[5] = dose: 100.0 mg/kg/injection, schedule: Q01DX009 (ip), vehicle: saline with Tween-80
[6] = dose: 200.0 mg/kg/injection, schedule: Q01DX009 (ip), vehicle: saline with Tween-80
[7] = dose: 400.0 mg/kg/injection, schedule: Q04DX003 (ip), vehicle: saline
[8] = dose: 1600.0 mg/kg/injection, schedule: Q04DX003 (oral), vehicle: saline with Tween-80
[9] = dose: 100.0 mg/kg/injection, schedule: Q01DX005 (ip), vehicle: saline
[10] = dose: 200.0 mg/kg/injection, schedule: Q01DX005 (ip), vehicle: saline
[11] = dose: 200.0 mg/kg/injection, schedule: Q01DX005 (ip), vehicle: distilled water + Tween-80

CN(C)CCCC1(c2cccc(Cl)c2)SC(C)(C)c2ccccc21 (centres undefined)
survivor count (dose: 100.0 mg/kg/injection, schedule: Q01DX001 (ip), vehicle: saline): 2 of 5

Cc1ccc(C2(c3ccccc3)OC3OC=CC32)cc1 (centres undefined)
survivor count (dose: 120.0 mg/kg/injection, schedule: Q01DX005 (ip), vehicle: saline with Tween-80): 5 of 6

CC1=NCCN=C(C)C1N=Nc1ccccc1
survivor count [1]: 0 of 6

Nc1ccccc1C(=O)Nc1ccc(Cl)cc1C(=O)O
survivor count [2]: 2 of 6

C=C(C)C1C2CC3(C)C4(CO4)C4OC4C3(O)C1C(=O)O2 (centres undefined)
survivor count (dose: 2.5 mg/kg/injection, schedule: Q01DX005 (ip), vehicle: Klucel (hydroxypropylcellulose) (HPC)): 1 of 6
survivor count (dose: 5.0 mg/kg/injection, schedule: Q01DX005 (ip), vehicle: Klucel (hydroxypropylcellulose) (HPC)): 0 of 6
survivor count (dose: 10.0 mg/kg/injection, schedule: Q01DX005 (ip), vehicle: Klucel (hydroxypropylcellulose) (HPC)): 0 of 6
survivor count (dose: 20.0 mg/kg/injection, schedule: Q01DX005 (ip), vehicle: Klucel (hydroxypropylcellulose) (HPC)): 0 of 6
survivor count (dose: 40.0 mg/kg/injection, schedule: Q01DX005 (ip), vehicle: Klucel (hydroxypropylcellulose) (HPC)): 0 of 6

[CH3][Sn]([CH3])([N](c1ccccn1)c1ccccn1)[N](c1ccccn1)c1ccccn1
survivor count [3]: 2 of 6

CN1C(N)=NC(c2ccccc2)=CC1(C)c1ccccc1 (centres undefined)
survivor count (dose: 50.0 mg/kg/injection, schedule: Q01DX005 (ip), vehicle: Klucel (hydroxypropylcellulose) (HPC)): 0 of 5
survivor count [4]: 0 of 5
survivor count [3]: 0 of 5

CCCCCCC(=O)/C=C/c1cccc(OCOCC)c1
T/C [5]: 138 % of control
T/C [6]: 126 % of control

N#Cc1nnn(-c2ccc(Cl)cc2)c1N
survivor count [3]: 5 of 5

CSC(=S)N/N=C(\C)c1ccccc1
survivor count (dose: 12.5 mg/kg/injection, schedule: Q01DX009 (ip), vehicle: saline): 6 of 6
survivor count (dose: 25.0 mg/kg/injection, schedule: Q01DX009 (ip), vehicle: saline): 6 of 6
survivor count (dose: 50.0 mg/kg/injection, schedule: Q01DX009 (ip), vehicle: saline): 6 of 6

CN1C(c2ccccc2)CC(C)(O)CC1c1ccccc1 (centres undefined)
survivor count (dose: 240.0 mg/kg/injection, schedule: Q01DX005 (ip), vehicle: saline with Tween-80): 0 of 6

COc1cc2c(cc1OC)C[N+]1(C)CCc3cc(OC)c(OC)cc3C1C2 (centres undefined)
survivor count (dose: 40.0 mg/kg/injection, schedule: Q01DX009 (ip), vehicle: saline): 2 of 6

O=c1ccnc(Sc2ccc([N+](=O)[O-])cc2[N+](=O)[O-])[nH]1
survivor count [1]: 3 of 6

CC1=C2C(=C[C@@](C)(CO)[C@@H]2O)C(=O)[C@](C)(O)C12CC2
T/C (dose: 0.2 mg/kg/injection, schedule: Q01DX010 (ip), vehicle: saline, evaluated on day 30): 127 % of control
T/C (dose: 0.2 mg/kg/injection, schedule: Q01DX010 (ip), vehicle: saline, run until all animals had died): 135 % of control
survivor count (dose: 0.4 mg/kg/injection, schedule: Q01DX010 (ip), vehicle: saline): 4 of 6
survivor count (dose: 1.6 mg/kg/injection, schedule: Q01DX010 (ip), vehicle: saline): 3 of 6

C1=CCC2CSCC2C1 (centres undefined)
survivor count (dose: 150.0 mg/kg/injection, schedule: Q01DX001 (ip), vehicle: saline sonified): 0 of 6

C=C(CC(=O)Nc1nc(C)c(C(=O)OC)s1)C(=O)O
survivor count (dose: 100.0 mg/kg/injection, schedule: Q01DX009 (ip), vehicle: saline): 6 of 6

CC1(c2ccccc2)Nc2ccccc2N(C(=O)c2ccccc2)C1c1ccccc1 (centres undefined)
survivor count (dose: 240.0 mg/kg/injection, schedule: Q01DX005 (ip), vehicle: Klucel (hydroxypropylcellulose) (HPC)): 6 of 6

CC(NNC(=S)N1CCCCCC1)c1ccccn1 (centres undefined)
survivor count [4]: 4 of 6
survivor count [3]: 0 of 6

Nc1cccc(S(=O)(=O)N/N=C/C(=O)O)c1
survivor count (dose: 200.0 mg/kg/injection, schedule: Q01DX009 (ip), vehicle: water): 5 of 6
survivor count (dose: 400.0 mg/kg/injection, schedule: Q01DX009 (ip), vehicle: water): 1 of 6

N#C/C(=C\c1ccco1)C(=O)c1ccco1
survivor count [5]: 6 of 6
survivor count [6]: 6 of 6

CC(C)CCC[C@@H](C)[C@H]1CC[C@H]2[C@@H]3CC[C@H]4C[C@H](N)CC[C@]4(C)[C@H]3CC[C@]12C
survivor count [4]: 0 of 5
survivor count [3]: 0 of 5

Cc1cccc(-c2cc3cccnc3nc2NN=O)c1C
T/C (dose: 12.5 mg/kg/injection, schedule: Q01DX009 (ip), vehicle: water): 127 % of control
T/C (dose: 25.0 mg/kg/injection, schedule: Q01DX009 (ip), vehicle: water): 127 and 128 % of control

Cc1ccccc1C(=O)Nc1ccccc1-c1ccccc1N
survivor count (dose: 200.0 mg/kg/injection, schedule: Q04DX003 (ip), vehicle: saline): 6 of 6
survivor count [7]: 6 of 6

CNC(=O)Nc1nc2ccc([N+](=O)[O-])cc2[nH]1
T/C [8]: 140 % of control
survivor count [8]: 6 of 6
survivor count (dose: 2400.0 mg/kg/injection, schedule: Q04DX003 (oral), vehicle: saline with Tween-80): 5 of 6

Cc1cc(O)c(C=O)c2c1C(=O)Oc1c(COC(=O)/C=C/C(=O)O)c(O)c(C(=O)O)c(C)c1O2
survivor count [2]: 2 of 3

Cc1cccc(N=Nc2c(-c3ccccc3)nn(C(=S)S)c2C)c1C
survivor count (dose: 100.0 mg/kg/injection, schedule: Q01DX001 (ip), vehicle: saline with Tween-80): 5 of 5

O=N[O-].O=N[O-].[I][Pt][I]
T/C (dose: 25.0 mg/kg/injection, schedule: Q01DX005 (ip), vehicle: saline): 125 % of control
T/C (dose: 50.0 mg/kg/injection, schedule: Q01DX005 (ip), vehicle: saline, evaluated on day 20): 137 % of control
T/C (dose: 50.0 mg/kg/injection, schedule: Q01DX005 (ip), vehicle: saline, evaluated on day 30): 126 % of control
survivor count [9]: 5 of 6
survivor count [10]: 0 of 6

CNC(=O)OCc1nc(SC)n(-c2ccccc2)c1COC(=O)NC
T/C [11]: 127 and 141 % of control
survivor count (dose: 400.0 mg/kg/injection, schedule: Q01DX005 (ip), vehicle: distilled water + Tween-80): 2 of 6

COc1cc2nc3occc3c(OC)c2cc1OCC(O)C(C)(C)O (centres undefined)
survivor count (dose: 50.0 mg/kg/injection, schedule: Q01DX005 (ip), vehicle: distilled water + Tween-80): 6 of 6
survivor count (dose: 100.0 mg/kg/injection, schedule: Q01DX005 (ip), vehicle: distilled water + Tween-80): 6 of 6
survivor count [11]: 0 of 6

C1CNCOC1
survivor count [7]: 3 of 6

CCCCOP(=O)(CCCC)OCCCC.CCCCOP(=O)(CCCC)OCCCC.CCCCOP(=O)(CCCC)OCCCC.CCCCOP(=O)(CCCC)OCCCC.O.O.[Co+2].[O-][Cl+3]([O-])([O-])O
survivor count [5]: 6 of 6
survivor count [6]: 0 of 6

C/C=C1\CN2CCC34c5ccc(OC)cc5N(C)C3C2CC1C4C(=O)OC (centres undefined)
survivor count (dose: 69.0 mg/kg/injection, schedule: Q01DX005 (ip), vehicle: acid diluted with saline): 0 of 6
survivor count (dose: 138.0 mg/kg/injection, schedule: Q01DX005 (ip), vehicle: acid diluted with saline): 0 of 6

CC1(C)N=C(N)N=C(N)N1c1ccc(Cl)cc1Cl
survivor count [9]: 0 of 5
survivor count [10]: 0 of 5

CCCCNC(C)C1(O)Cc2c(O)c3c(c(O)c2C(OC2CC(N)C(O)C(C)O2)C1)C(=O)c1c(OC)cccc1C3=O (centres undefined)
T/C (dose: 1.25 mg/kg/injection, schedule: Q01DX009 (ip), vehicle: water): 130 and 132 % of control
T/C (dose: 2.5 mg/kg/injection, schedule: Q01DX009 (ip), vehicle: water): 126 and 137 % of control
T/C (dose: 5.0 mg/kg/injection, schedule: Q01DX009 (ip), vehicle: water): 140 and 143 % of control

COCCCNC(=S)N/N=C/c1cc(Cl)cc(Cl)c1O
survivor count (dose: 25.0 mg/kg/injection, schedule: Q01DX009 (ip), vehicle: saline with Tween-80): 6 of 6
survivor count (dose: 50.0 mg/kg/injection, schedule: Q01DX009 (ip), vehicle: saline with Tween-80): 5 of 6
survivor count [5]: 6 of 6
